Measurements taken from patent US20130065833A1, “ALKYLATED SP-B PEPTOID COMPOUNDS AND RELATED LUNG SURFACTANT COMPOSITIONS” (Northwestern University, priority 2010, published 2013).
Some entries share one result that the patent states for a list of compounds.

Test: Pulsating bubble surfactometry (PBS), dynamic-mode cycling at 20 cpm
Type: physicochemical
Details: PBS dynamic-mode in a TL film, 37° C., time point not stated
Protocol: The maintenance of good surfactant activity during the dynamic changes in volume or film surface area at the a/l interface was assessed via bubble pulsation in PBS dynamic-mode. This method permits a simplified evaluation of in vitro dynamic film behavior. (Seurynck, S. L., Brown, N. J., Wu, C. W., Germino, K. W., Kohlmeir, E. K., Ingenito, E. P., Glucksberg, M. R., Barron, A. E., and Johnson, M. (2005) J. Appl. Physiol. 99, 624-633.) The γ-surface area (SA) data loops in FIG. 4B for each lipid-peptoid mixture are one representative pulsation cycle at 20 cycles per minute (cpm) after five minutes at 37° C., with bubble expansion in a clockwise loop direction.
The absence of low-γ data in some loops results from the inability of the image analysis system to trace the bubble shape in this regime. The highly compressed state of the film, which enables it to reach low γ, often causes significant bubble shape deformation, eliminating the possibility of tracing the bubble to obtain SA or employing the ellipsoidal Laplace equation to calculate γ. […] Visual, real-time bubble inspection confirmed that significant bubble deformation occurred and that γ reached near-zero in these films.
The lipids DPPC, POPG, and PA were individually dissolved in a chloroform/methanol solution (3/1 [v/v]) to a known concentration (˜2 or 4 mg mL^−1). […]

## FPIPLPYAWLARALIKRIQAMIPKG [SP-B1-25, reference compound]
  γmax: 48-50 mN m^−1
